According to PubChem BioAssay AID2685 (National Center for Advancing Translational Sciences (NCATS), 2010):
Some of the results follow. Further columns of the screen follow, without active or inactive calls. Most of these compounds were active or inconclusive in the main read-out, so they are no random draw. Words in brackets tell the shape of the fitted curve; partial curves, single points and poor fits give uncertain potencies.

Test: qHTS Assay for Lipid Storage Modulators in Drosophila S3 Cells;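 as to cell number change: cells counted by Cell Tracker Red CMTPX staining in the red channel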
Settings: BODIPY lipid droplet fluorescence, 18-24 h; for cell number change: measured here: cell count max response, cells fed with added oleic acid
Procedure, shortened: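 Laser-scanning cytometry quantifies lipid droplet accumulation (500–530 nm total intensity; droplet/cell object ratio) in oleic acid-fed (400 uM added) Drosophila S3 cells treated with a concentration series. 20 uM Triacsin C defined 100% inhibition.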

[1] = measured here: cell number channel AC50, cells fed with added oleic acid
[2] = measured here: lipid fluorescence (Fed channel) AC50, cells fed with added oleic acid

Structure (SMILES) | cell number change [%] | AC50 [1] | AC50 [2]
COc1ccc(C(C)=O)cc1COC(=O)CNC(=O)c1ccc(F)cc1 | 2.52 | 0.206 µM [falling, full curve, poor fit] | –
CCOC(=O)CCc1c(C(=O)OCC)[nH]c(CC)c1C(=O)OCc1ccccc1 | 37.1 | 0.326 µM [rising, full curve] | 0.517 µM [rising, full curve]
COc1ccc(CN(C(=O)c2nsc(Cl)c2Cl)C(C(=O)NC2CCCC2)c2ccc(C)cc2)cc1 (stereo not given) | -79.1 | 16.4 µM [falling, single point] | 23.1 µM [falling, single point]
Cc1ccccc1NC(=O)NCC1CCN(c2ccc(S(=O)(=O)N3CCOCC3)cc2)CC1 | 16.7 | – | 0.58 µM [rising, partial curve]
O=C(CSc1ccc(-c2ccco2)nn1)NC1CCCC1 | – | 4.61 µM [falling, single point] | –
O=C(OCC(=O)c1ccc[nH]1)C1=COCCO1 | 18.6 | – | 13 µM [rising, partial curve]
COc1cc(C(=O)O/N=C2\CCCc3c2ccc(OC)c3[N+](=O)[O-])cc(OC)c1OC | 120 | – | –
CC(=O)NC(=S)NNC(=O)C(c1ccccc1)c1ccccc1 | 8.5 | – | –
CCc1ccccc1NC(=O)C1CC(c2ccc(OC)cc2)=NO1 (stereo not given) | -12.6 | – | 29.1 µM [rising, single point]
O=C1CCCN1CC1CCCN(Cc2nc(COc3ccccc3)no2)C1 (stereo not given) | 7.08 | – | 6.51 µM [falling, single point]
FC(F)(F)c1ccc(-n2cn[nH]c2=S)cc1 | -13.3 | 0.82 µM [falling, full curve, poor fit] | –
Fc1ccc(N2N=C(c3cccs3)CC2c2ccco2)c(F)c1 (stereo not given) | -43.7 | 14.6 µM [falling, single point] | –
CN(C(=O)COC(=O)Cc1c[nH]c2ccccc12)c1c(N)n(Cc2ccccc2)c(=O)[nH]c1=O | -10.3 | – | 0.092 µM [falling, full curve, poor fit]
OC1(c2cccc(C(F)(F)F)c2)CCN(c2ncnc3c2[nH]c2ccc(F)cc23)CC1 | -98.6 | 10.3 µM [falling, partial curve] | 16.4 µM [falling, partial curve]
Cc1cc(-c2ccccc2)nc2[n+]1CCN2C | -3.97 | – | 2.06 µM [falling, partial curve]
O=C(CCCSc1nc2ccccc2[nH]1)NCc1ccccc1Cl | -27.1 | – | –
Cc1ccc(S(=O)(=O)N2CCCCC2CCNC(=O)C(=O)Nc2ccccc2F)cc1 (stereo not given) | -17.9 | – | 16.4 µM [falling, single point]
COc1ccc(CN(C)C(C)C(=O)Nc2cccc3ccccc23)cc1 (stereo not given) | 12.1 | – | 0.146 µM [falling, full curve, poor fit]
CC(C)(C)c1ccc(C(=O)CCC(=O)NCc2ccccc2)cc1 | – | – | 29.1 µM [falling, single point]
CCS(=O)(=O)n1nc(-c2ccccc2)nc1SCc1ccccc1 | – | 1.84 µM [falling, partial curve] | 2.91 µM [falling, partial curve, poor fit]

Structure (SMILES) | cell number change [%] | AC50 [1] | AC50 [2]
c1ccc(-c2nc(-n3ccnc3)nc(-n3ccnc3)n2)cc1 | -32.8 | 13 µM [falling, single point] | 0.13 µM [rising, full curve, poor fit]
Cc1ccc(-c2nnn(CC(=O)N(CC(=O)NC3CCCC3)c3cnc4ccccc4c3)n2)o1 | 34.7 | 10.3 µM [rising, partial curve] | –
O=C(NCC(=O)N1CCN(S(=O)(=O)c2cccc(F)c2)CC1)c1ccc(Br)o1 | 46.9 | 25.9 µM [rising, single point] | 25.9 µM [rising, partial curve]
COc1ccc(C(C(=O)NCc2ccccc2)N(Cc2ccc3c(c2)OCO3)C(=O)c2cnccn2)cc1 (stereo not given) | 41.9 | 0.411 µM [rising, full curve] | 29.1 µM [rising, single point]
CCn1cc(C2=NC(C)CO2)c2ccccc21 (stereo not given) | 42.3 | 29.1 µM [rising, single point] | 29.1 µM [rising, single point]
Clc1ccc2nc(CSc3nc4ccccc4o3)cn2c1 | – | 2.06 µM [rising, partial curve] | –
CCOC(=O)c1cc(NC(=O)N(C(C)C)C(C)C)c(C)nc1C | 27.9 | 0.326 µM [rising, full curve] | 0.82 µM [rising, full curve]
COc1ccc(NC(=O)CC2SC(N3CCCCC3)=NC2=O)cc1OC (stereo not given) | 1.83 | – | 0.731 µM [falling, single point]
O=S(=O)(O)c1cc(O)c2c(O)c(N=Nc3cc(Cl)ccc3O)c(S(=O)(=O)O)cc2c1 | 7.21 | 6.51 µM [rising, single point] | 6.51 µM [rising, single point]
CCCC(=O)N(Cc1cc2ccccc2[nH]c1=O)c1ccccc1OC | 114 | 23.1 µM [rising, partial curve] | –
COc1ccc(S(=O)(=O)N2CCOC2CNC(=O)C(=O)NCCN(C)C)cc1 (stereo not given) | -4.86 | – | 0.82 µM [falling, full curve]
Cc1cc(C(=O)NC(=S)Nc2cccc(NC(=O)C(C)C)c2)ccc1[N+](=O)[O-] | -47.4 | 1.64 µM [falling, full curve] | 1.84 µM [falling, full curve]
COCCCNC(=S)N1CCN(c2ccccc2)CC1 | 11.7 | 6.51 µM [falling, single point] | 6.51 µM [falling, single point]
CCOCCCN(C(=O)c1ccco1)C(C(=O)NC1CCCC1)c1cccc(OC)c1OC (stereo not given) | 3.03 | – | 6.51 µM [rising, single point]
Cc1sc2ncnc(N3CCC(C(=O)Nc4ccccc4C(C)(C)C)CC3)c2c1C | -10.8 | – | –
Nc1ccc(CCS(N)(=O)=O)cc1 | 3.25 | – | 6.51 µM [falling, single point]
COc1ccc(CC(=O)OCC(=O)Nc2ccc3c(c2)OCO3)cc1 | -8.88 | – | 0.00517 µM [falling, full curve, poor fit]
COc1cccc(NC(=O)CSCc2cc(=O)n3ccsc3n2)c1 | 30.6 | 0.00461 µM [rising, full curve, poor fit] | 23.1 µM [rising, single point]
CC1CN(C(=S)Nc2cccc(F)c2)CC(C)O1 (stereo not given) | 18.1 | – | –
CCC(C)[C@H](NC(=O)OC(C)(C)C)C(=O)N/N=C/c1cccc2nccnc12 (stereo not given in full) | 18.4 | – | 6.51 µM [rising, single point]

Four compounds already listed, arranged by length of the SMILES, smallest number first.
Structure (SMILES) | cell number change [%] | AC50 [1] | AC50 [2]
CCn1cc(C2=NC(C)CO2)c2ccccc21 (stereo not given) | 42.3 | 29.1 µM [rising, single point] | 29.1 µM [rising, single point]
COCCCNC(=S)N1CCN(c2ccccc2)CC1 | 11.7 | 6.51 µM [falling, single point] | 6.51 µM [falling, single point]
O=C(NCC(=O)N1CCN(S(=O)(=O)c2cccc(F)c2)CC1)c1ccc(Br)o1 | 46.9 | 25.9 µM [rising, single point] | 25.9 µM [rising, partial curve]
O=S(=O)(O)c1cc(O)c2c(O)c(N=Nc3cc(Cl)ccc3O)c(S(=O)(=O)O)cc2c1 | 7.21 | 6.51 µM [rising, single point] | 6.51 µM [rising, single point]

Additional entries follow.

Structure (SMILES) | cell number change [%] | AC50 [1] | AC50 [2]
CCN(c1ccccc1)c1nc(=O)c2cccnc2s1 | – | 0.82 µM [rising, single point] | –
S=C(NCCc1c[nH]c2ccccc12)NC1CCCC1 | 41.8 | – | –
Cc1ccc(NC2=NCCCCC2)cc1 | 19.7 | – | –
CC(C)CC(N=Cc1c(O)c2ccccc2oc1=O)C(=O)O (stereo not given) | – | – | 0.82 µM [rising, single point]
Cc1[nH]n(-c2ccccc2)c(=O)c1C(c1ccccc1C(=O)O)c1c(C)[nH]n(-c2ccccc2)c1=O | 12.1 | – | 0.116 µM [falling, full curve, poor fit]
COc1ccc(NC(=O)CN(C)S(=O)(=O)c2ccc(Cl)cc2)cc1Cl | 1.14 | – | 0.00461 µM [falling, full curve, poor fit]
CN(Cc1cccs1)C(=O)c1cccc(S(=O)(=O)N2CCCCCC2)c1 | 48.6 | 32.6 µM [rising, single point] | 25.9 µM [rising, single point]
Cc1cc(C)c(OCCN2CCCC2)c(Cl)c1 | 0.676 | – | 1.16 µM [falling, partial curve]
Cc1ccc(C(=O)N2CC(=O)Nc3ccc(C)cc3C2c2ccccc2)cc1 (stereo not given) | – | 2.91 µM [rising, single point] | –
O=C(NC1=NCCS1)c1ccc(Br)s1 | -18.8 | – | 29.1 µM [rising, single point]
COc1ccc(C(=O)CCC(=O)NCc2cc(OC)cc(OC)c2)cc1 | -5.65 | – | 6.51 µM [falling, full curve]
Cc1ccc2nc(-c3ccc(SCC(=O)Nc4nnc(C)s4)nc3)[nH]c2c1 | -20.5 | 2.91 µM [falling, full curve, poor fit] | 20.6 µM [falling, partial curve]
Cc1ccccc1C(=O)NNS(=O)(=O)c1cccc([N+](=O)[O-])c1 | -26.1 | – | –
CCCN1CCN(CCCNC(=O)Cn2nc(C)n3c(cc4cc(OC)ccc43)c2=O)CC1 | – | – | 29.1 µM [falling, single point]
COc1cccc(CCNC(=O)COc2cccc3c2OC(C)(C)C3)c1 | -50 | 29.1 µM [falling, single point] | 0.146 µM [rising, full curve, poor fit]
Clc1ccc2c(N3CCCC3)ccnc2c1 | – | 4.11 µM [falling, single point] | –
CCCCc1nnc(NC(=O)c2ccc3c(=O)n4c(nc3c2)CCC4)s1 | 22.9 | – | –
COC(=O)C1=C(C)NC(C)=C(C(=O)OC)C1C(=O)OC(C)C(=O)c1ccccc1 (stereo not given) | -25 | – | 2.06 µM [falling, partial curve, poor fit]
O=[N+]([O-])c1ccc(Cl)c(/C=N/n2c(C3CCCCC3)n[nH]c2=S)c1 | – | – | 0.146 µM [rising, full curve, poor fit]
